Measurements: US9987276B2

Key:
Format in all cases: cell-based
DOHH2 = assay: B cell lymphoma proliferation assay, DOHH2; details: read-out: EC50 (μM) DOHH2
WSU-DLCL2 = assay: B cell lymphoma proliferation assay, WSU-DLCL2; details: read-out: EC50 (μM) WSU-DLCL2
DHL4 = assay: B cell lymphoma proliferation assay, DHL4; details: read-out: EC50 (μM) DHL4

EC50 (DOHH2): 1 to 10 µM
EC50 (WSU-DLCL2): 1 to 10 µM
EC50 (DHL4): 1 to 10 µM
SMILES: C=CC(=O)N1CCOc2ccc(Nc3nc(Nc4ccc5cnn(C)c5c4)ncc3C(C)=O)cc21

The match of structure and compound is tentative.
